{"source": "PubChem BioAssay AID1745846", "about": "(National Center for Advancing Translational Sciences (NCATS), 2022)", "note": "In all, about 1,400 compounds went through this assay and about 30 (2%) were called active. Inconclusive results (about 15%) are left out. The call rests on the fitted dose curve; in most records, active means well fitted inhibition curve with a large enough effect; inconclusive means small, poorly fitted or top-dose-only effect; inactive means flat fitted curve, though single readings scatter. Some of the results follow. On the % scale 0 is the no-effect control and ±100 the full control effect; potency means the concentration at half of the fitted maximal effect."}
{"test": "Firefly Luciferase Counterscreen for Inhibitors of ATXN expression", "conditions": "luminescence; series mostly up to 57.5 µM; activity change, negative = inhibition: at the top concentration", "procedure,_shortened": "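Recombinant firefly luciferase at 10 nM final in 50 mM Tris pH 7.5, 10 mM MgCl2, 0.05% BSA, 0.01% Tween20 with substrate; compounds up to 57 uM final, 10 min room temperature, end-point luminescence. Buffer-only wells define 100% inhibition.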"}
{"smiles": "N#Cc1c(N)n(C2OC(CO)C(O)C2O)c2ncnc(N)c12", "note": "(centres undefined)", "activity change, negative = inhibition": "inactive: 2.38%"}
{"smiles": "COc1ccc(/C=C/C(=O)c2ccc([N+](=O)[O-])o2)cc1OC", "activity change, negative = inhibition": "inactive: -1.12%"}
{"smiles": "Oc1c(CN2CCN(c3ccccc3)CC2)cc(Br)c2cccnc12", "activity change, negative = inhibition": "inactive: -0.274%"}
{"smiles": "O=C1Nc2c(Br)cc(Br)c3cccc1c23", "activity change, negative = inhibition": "inactive: 2.55%"}
{"smiles": "COCCNC(=O)c1cccc(Nc2nc(-c3ccccc3)c3cc(Cl)ccc3n2)c1", "activity change, negative = inhibition": "inactive: 0.238%"}
{"smiles": "Cc1cc(C(=O)CN2C(=O)c3ccccc3S2(=O)=O)c(C)n1CC1CCCO1", "note": "(centres undefined)", "Potency": "active: 6.31 µM"}
{"smiles": "CCC1=C(OC(=O)N(CC)CC)N2C(=O)OC(=NCCc3c[nH]c4ccccc34)[C@]2(Cc2ccccc2)[C@H]2C1=CC[C@H]1C(=O)N(c3ccccc3)C(=O)[C@H]12", "activity change, negative = inhibition": "inactive: 1.45%"}
{"smiles": "COc1cccc(C(=O)Oc2c(CN3CCOCC3)cc(Cl)c3cccnc23)c1", "activity change, negative = inhibition": "inactive: -0.59%"}
{"smiles": "COC(=O)C1=C(C)N(Cc2ccccc2)C(=NCCc2cccnc2)N[C@H]1c1ccc(Br)cc1", "activity change, negative = inhibition": "inactive: -2.23%"}
{"smiles": "COc1ccc2c(-c3ccc(S(N)(=O)=O)cc3)c(-c3ccc(S(C)(=O)=O)cc3)sc2c1", "activity change, negative = inhibition": "inactive: -0.809%"}
{"smiles": "COC(=O)N/N=C/c1cn(CC(C)COc2ccccc2)c2ccccc12", "note": "(centres undefined)", "activity change, negative = inhibition": "inactive: -3.7%"}
{"smiles": "CCCCC(=O)NC(c1ccccc1Cl)c1ccc2cccnc2c1O", "note": "(centres undefined)", "activity change, negative = inhibition": "inactive: 1.43%"}
{"smiles": "Cc1ccc(C(=O)N/C(=C/c2ccc(-c3ccc([N+](=O)[O-])cc3)o2)C(=O)NCCCN(C)C)cc1", "activity change, negative = inhibition": "inactive: -0.319%"}
{"smiles": "Cc1ccc(C(=O)N(CCCN(C)C)c2nc3ccc(Cl)cc3s2)cc1C", "activity change, negative = inhibition": "inactive: 0.344%"}
{"smiles": "CCOC(=O)c1c(CSc2nc(C)cc(C)c2C#N)n(C)c2cc(Br)c(OC(C)=O)cc12", "activity change, negative = inhibition": "inactive: 2.39%"}
{"smiles": "COc1cc2c3nnc(-c4ccc(F)cc4)c-3cn(Cc3ccc(C)cc3)c2cc1OC", "activity change, negative = inhibition": "inactive: 2.15%"}
{"smiles": "c1ccc(-c2nnc(-c3ccccn3)nc2NC2CCCCC2)cc1", "activity change, negative = inhibition": "inactive: -3.58%"}
{"smiles": "Cn1c2ccccc2c(=O)c2c(=O)n(C3CCCCC3)c(-c3cccs3)nc21", "activity change, negative = inhibition": "inactive: -7.28%"}
{"smiles": "O=C(COc1ccc(Cl)cc1)N/N=C/c1cccc2cccnc12", "activity change, negative = inhibition": "inactive: 3.77%"}
{"smiles": "CN1CCN(CCNC(=O)c2ccc3nc(-c4ccc(F)cc4)c(-c4ccc(F)cc4)nc3c2)CC1", "activity change, negative = inhibition": "inactive: 1.75%"}
{"smiles": "CC(=NNc1nc2ccccc2o1)c1ncccn1", "Potency": "active: 14.1 µM"}
{"smiles": "Oc1c(Cl)cc(Cl)cc1/C=N/Nc1ncc(Br)cn1", "activity change, negative = inhibition": "inactive: 0.321%"}
{"smiles": "CCc1ccc(-c2cc(C(F)(F)F)n3nc(C(=O)Nc4cnn(Cc5ccc(C)cc5)c4)cc3n2)s1", "activity change, negative = inhibition": "inactive: 4.16%"}
{"smiles": "CCN1CCN(c2ccc(Cl)cc2NC(=O)c2ccc(-n3nc(C)cc3C)cc2)CC1", "activity change, negative = inhibition": "inactive: 1.92%"}
{"smiles": "COc1ccc(C(CCNC(C)c2ccccc2)c2ccc(F)cc2)cc1", "note": "(centres undefined)", "activity change, negative = inhibition": "inactive: 0.131%"}
{"smiles": "COc1cccc(NC(=S)/C(=C(\\[O-])c2cc(C)n(-c3ccccc3F)c2C)[n+]2ccc(N(C)C)cc2)c1", "Potency": "active: 15.8 µM"}
{"smiles": "Cn1nccc1C(=O)N1CCCC(C(=O)c2cccc3ccccc23)C1", "note": "(centres undefined)", "activity change, negative = inhibition": "inactive: -5.05%"}
{"smiles": "CCOC(=O)c1c(-c2ccccc2)oc2cc(CN(C)C)c(O)c(CN(C)C)c12", "activity change, negative = inhibition": "inactive: 1.49%"}
{"smiles": "CCCC(=O)NC(c1ccc(OC)cc1)c1ccc2cccnc2c1O", "note": "(centres undefined)", "activity change, negative = inhibition": "inactive: -0.133%"}
{"smiles": "Cc1c(C(=O)Nc2nonc2-c2ccc(F)cc2)oc2ccc(F)cc12", "activity change, negative = inhibition": "inactive: -6.36%"}
{"smiles": "CN(C)C(CNC(=O)c1cccc(S(=O)(=O)N2CCN(c3ccc(F)cc3)CC2)c1)c1ccccc1", "note": "(centres undefined)", "activity change, negative = inhibition": "inactive: 0.537%"}
{"smiles": "Nc1cc2c3c(cccc3c1)C(=O)N(CCN1CCCC1)C2=O", "activity change, negative = inhibition": "inactive: -0.359%"}
{"smiles": "CC1CC2(C)Oc3ccccc3CC2C(C)C1CNCCCN(C)C", "note": "(centres undefined)", "activity change, negative = inhibition": "inactive: 3.4%"}
{"smiles": "O=[N+]([O-])c1cc(Cl)c(O)c2ncccc12", "activity change, negative = inhibition": "inactive: -17.6%"}
{"smiles": "CC(=O)Nc1cc(-c2ccc(C(=O)NC3CC3)cc2)cn2c(-c3cccc(C(C)=O)c3)cnc12", "activity change, negative = inhibition": "inactive: -11.2%"}
{"smiles": "CC(=O)Nc1cccc(-c2ccnc3c2CC(C)(C(=O)Nc2ccc(Cl)c(C(F)(F)F)c2)O3)c1", "note": "(centres undefined)", "activity change, negative = inhibition": "inactive: -1.06%"}
{"smiles": "O=C(CSc1nc2ncc(Cl)cc2[nH]1)Nc1cccc(F)c1", "activity change, negative = inhibition": "inactive: -2.03%"}
{"smiles": "Cc1[nH]c2ccccc2c1SCc1nnc(SCc2ccc(Cl)cc2)n1C", "activity change, negative = inhibition": "inactive: -1.46%"}
{"smiles": "O=C(O)CCn1cc(/C=C/C(=O)c2ccc(Cl)cc2)c(-c2ccc(Br)cc2)n1", "activity change, negative = inhibition": "inactive: -19.4%"}
{"smiles": "COc1ccc(CNC(=O)Nc2nc(C(N)Cc3ccc(C(F)(F)F)cc3)cs2)cc1", "note": "(centres undefined)", "activity change, negative = inhibition": "inactive: -2.52%"}
{"smiles": "COc1ccc(-n2nc(C(=O)NCC(=O)Nc3cccc(Cl)c3)c3ccccc3c2=O)cc1OC", "activity change, negative = inhibition": "inactive: 1.16%"}
{"smiles": "CC(=O)c1cccc(-c2csc3ncnc(Sc4nnnn4C)c23)c1", "activity change, negative = inhibition": "inactive: -1.25%"}
{"smiles": "COc1cccc(S(=O)(=O)NCc2ccc(C(=O)Nc3cccc(Cl)c3)cc2)c1", "activity change, negative = inhibition": "inactive: -2.18%"}
{"smiles": "Oc1c(C(Nc2nccs2)c2ccc(C(F)(F)F)cc2)ccc2cccnc12", "note": "(centres undefined)", "activity change, negative = inhibition": "inactive: -8.69%"}
{"smiles": "N/C(=N\\NC(=O)c1sccc1OCc1ccc(Cl)cc1Cl)c1ccccn1", "activity change, negative = inhibition": "inactive: -1.44%"}
{"smiles": "CCOC(=O)N1CCN(c2ncnc3c2[nH]c2ccc(F)cc23)CC1", "activity change, negative = inhibition": "inactive: -1.8%"}
{"smiles": "O=C(CN1CC(c2ccccc2)CC1=O)N/N=C/c1cc(Br)ccc1O", "note": "(centres undefined)", "activity change, negative = inhibition": "inactive: -4.24%"}
{"smiles": "COc1cc2c(C(=O)N3CCOCC3)c(CSc3ccccc3)n(C)c2cc1Br", "activity change, negative = inhibition": "inactive: -1.61%"}
{"smiles": "CCOc1ccc(-n2c(SCc3ccc([N+](=O)[O-])cc3)nnc2-c2ccccc2)cc1", "activity change, negative = inhibition": "inactive: -9.1%"}
